Results: patent US20210322524A1
These are yes or no findings as the source states them, for the method shown. Some entries that bind do so weakly or less than the wild type.

The chains behind the UniProt entries cited, without tags or fusion partners. Where a name states a change or a piece, a line headed by the entry shows the natural chain unless it says otherwise. A line that says so, or that is headed by a name, gives the form on record, which may keep a tag or linker. Residues count along the entry.
UniProt Q9NVI7: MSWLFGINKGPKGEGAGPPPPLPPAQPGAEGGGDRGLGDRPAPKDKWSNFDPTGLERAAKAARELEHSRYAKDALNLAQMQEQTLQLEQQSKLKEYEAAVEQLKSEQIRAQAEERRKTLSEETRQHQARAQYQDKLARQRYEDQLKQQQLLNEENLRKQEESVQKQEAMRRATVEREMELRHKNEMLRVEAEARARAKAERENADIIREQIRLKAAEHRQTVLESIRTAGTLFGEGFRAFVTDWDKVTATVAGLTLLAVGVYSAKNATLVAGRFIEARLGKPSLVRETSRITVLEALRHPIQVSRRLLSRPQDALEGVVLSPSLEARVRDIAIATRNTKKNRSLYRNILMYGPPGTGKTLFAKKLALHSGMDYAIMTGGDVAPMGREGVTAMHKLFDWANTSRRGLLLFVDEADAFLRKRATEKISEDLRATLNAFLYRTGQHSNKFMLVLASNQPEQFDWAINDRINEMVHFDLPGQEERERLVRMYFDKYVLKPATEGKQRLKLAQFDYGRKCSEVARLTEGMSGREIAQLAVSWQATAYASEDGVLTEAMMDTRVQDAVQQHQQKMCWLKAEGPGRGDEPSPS
UniProt Q8BGV8: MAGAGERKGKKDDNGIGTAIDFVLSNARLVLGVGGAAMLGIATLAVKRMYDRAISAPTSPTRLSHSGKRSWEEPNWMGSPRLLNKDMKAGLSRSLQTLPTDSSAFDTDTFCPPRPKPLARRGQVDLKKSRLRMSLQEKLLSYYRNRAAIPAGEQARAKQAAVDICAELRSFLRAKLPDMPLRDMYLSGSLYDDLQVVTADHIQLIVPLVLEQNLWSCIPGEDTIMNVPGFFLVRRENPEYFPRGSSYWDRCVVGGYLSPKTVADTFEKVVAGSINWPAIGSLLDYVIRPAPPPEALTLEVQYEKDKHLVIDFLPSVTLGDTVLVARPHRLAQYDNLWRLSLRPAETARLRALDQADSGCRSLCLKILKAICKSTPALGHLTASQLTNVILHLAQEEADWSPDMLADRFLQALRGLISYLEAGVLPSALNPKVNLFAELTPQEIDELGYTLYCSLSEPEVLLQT
UniProt Q925I1, residues 2-591: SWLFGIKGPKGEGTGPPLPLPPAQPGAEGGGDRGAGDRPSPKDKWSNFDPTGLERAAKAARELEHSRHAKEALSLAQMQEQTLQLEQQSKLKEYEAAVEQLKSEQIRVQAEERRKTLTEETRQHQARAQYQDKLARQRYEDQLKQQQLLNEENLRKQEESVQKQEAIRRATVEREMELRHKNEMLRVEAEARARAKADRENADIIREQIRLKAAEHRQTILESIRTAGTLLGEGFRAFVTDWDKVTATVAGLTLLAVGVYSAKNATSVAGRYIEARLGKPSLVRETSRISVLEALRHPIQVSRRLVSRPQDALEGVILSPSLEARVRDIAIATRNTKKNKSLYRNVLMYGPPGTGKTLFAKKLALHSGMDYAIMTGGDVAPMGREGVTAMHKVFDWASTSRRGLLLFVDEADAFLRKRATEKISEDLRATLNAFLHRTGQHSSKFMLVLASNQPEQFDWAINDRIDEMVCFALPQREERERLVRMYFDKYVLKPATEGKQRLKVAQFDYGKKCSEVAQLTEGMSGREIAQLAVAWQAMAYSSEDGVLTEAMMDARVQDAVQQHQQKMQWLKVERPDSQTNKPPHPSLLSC
GST-Drp1 recombinant protein (O00429, form named): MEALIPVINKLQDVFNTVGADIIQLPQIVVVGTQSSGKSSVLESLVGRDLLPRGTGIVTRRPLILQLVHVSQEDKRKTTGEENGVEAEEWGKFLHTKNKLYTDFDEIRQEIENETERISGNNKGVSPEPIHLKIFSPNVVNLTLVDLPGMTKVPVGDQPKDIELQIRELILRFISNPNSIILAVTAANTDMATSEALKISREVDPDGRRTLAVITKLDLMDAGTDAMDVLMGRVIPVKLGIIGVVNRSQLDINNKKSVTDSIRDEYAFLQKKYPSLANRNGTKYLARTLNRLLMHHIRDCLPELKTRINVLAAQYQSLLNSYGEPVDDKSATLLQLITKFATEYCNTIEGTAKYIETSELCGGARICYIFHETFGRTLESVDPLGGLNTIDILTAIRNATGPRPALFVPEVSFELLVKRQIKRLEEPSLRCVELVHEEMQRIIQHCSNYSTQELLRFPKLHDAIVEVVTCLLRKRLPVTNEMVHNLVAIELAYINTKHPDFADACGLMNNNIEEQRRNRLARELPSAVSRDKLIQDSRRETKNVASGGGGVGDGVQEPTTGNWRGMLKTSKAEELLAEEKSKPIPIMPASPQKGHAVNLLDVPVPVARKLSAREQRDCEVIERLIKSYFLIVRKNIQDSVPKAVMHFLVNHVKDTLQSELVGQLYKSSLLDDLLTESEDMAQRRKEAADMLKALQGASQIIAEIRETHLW
UniProt Q8K1M6: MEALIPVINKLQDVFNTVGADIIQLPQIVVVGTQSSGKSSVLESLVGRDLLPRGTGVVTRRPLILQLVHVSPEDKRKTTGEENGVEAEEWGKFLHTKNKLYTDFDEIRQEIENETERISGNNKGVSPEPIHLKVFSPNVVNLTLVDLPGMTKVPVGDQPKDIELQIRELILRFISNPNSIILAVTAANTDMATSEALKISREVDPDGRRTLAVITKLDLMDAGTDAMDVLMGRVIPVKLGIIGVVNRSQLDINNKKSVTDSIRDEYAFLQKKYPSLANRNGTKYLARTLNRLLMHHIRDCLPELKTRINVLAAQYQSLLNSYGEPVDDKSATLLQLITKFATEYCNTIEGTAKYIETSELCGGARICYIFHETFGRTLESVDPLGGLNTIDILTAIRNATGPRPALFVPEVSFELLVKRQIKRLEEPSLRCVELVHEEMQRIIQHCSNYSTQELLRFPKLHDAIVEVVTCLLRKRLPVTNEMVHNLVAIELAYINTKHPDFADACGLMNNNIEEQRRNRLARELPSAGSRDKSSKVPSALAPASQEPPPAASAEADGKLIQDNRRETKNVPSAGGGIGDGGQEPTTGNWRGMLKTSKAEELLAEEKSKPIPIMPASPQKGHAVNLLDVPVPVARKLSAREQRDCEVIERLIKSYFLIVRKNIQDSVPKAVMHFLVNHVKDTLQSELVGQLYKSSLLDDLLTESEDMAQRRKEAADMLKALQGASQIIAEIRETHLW

Tests used:
[1] = target: ATAD3A-Flag protein (human ATAD3A wildtype, Flag-tagged) (human) (UniProt Q9NVI7); assay: summary of the in vitro binding and IP data
[2] = target: ATAD3A-Flag protein (human ATAD3A wildtype, Flag-tagged) (human) (UniProt Q9NVI7); assay: in vitro binding of purified proteins (2 µg each), anti-Flag IP and GST pull-down
[3] = target: MIEF1 (endogenous, HdhQ111 cells) (mouse) (UniProt Q8BGV8); assay: IP after DSP crosslinking
[4] = target: T1, Mff (endogenous, HdhQ111 cells) (mouse) (UniProt Q6PCP5); assay: IP after DSP crosslinking
T1 sequence (looked up): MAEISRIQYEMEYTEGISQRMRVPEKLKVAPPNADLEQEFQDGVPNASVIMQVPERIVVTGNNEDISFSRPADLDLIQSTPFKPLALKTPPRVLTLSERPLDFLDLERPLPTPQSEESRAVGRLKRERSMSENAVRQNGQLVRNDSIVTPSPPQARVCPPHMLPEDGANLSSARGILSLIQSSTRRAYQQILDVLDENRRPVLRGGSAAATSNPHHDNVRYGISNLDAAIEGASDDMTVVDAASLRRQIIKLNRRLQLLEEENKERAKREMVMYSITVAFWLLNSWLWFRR

[5] = target: T2, Fis1 (endogenous, HdhQ111 cells) (mouse) (UniProt Q9CQ92); assay: IP after 1% FA crosslinking
T2 sequence (looked up): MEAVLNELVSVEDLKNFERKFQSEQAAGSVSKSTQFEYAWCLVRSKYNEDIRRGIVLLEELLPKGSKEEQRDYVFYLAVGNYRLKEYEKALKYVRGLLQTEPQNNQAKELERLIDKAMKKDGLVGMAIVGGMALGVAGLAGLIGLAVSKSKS

[6] = target: ATAD3A (endogenous, mouse cells and mouse striatum) (mouse) (UniProt Q925I1); assay: immunoprecipitation of total lysates
[7] = target: ATAD3A (endogenous, mouse cells and mouse striatum) (mouse) (UniProt Q925I1); assay: immunoprecipitation, wildtype mouse striatal cells exposed to 3-NP

Row | binding [1] | binding [2] | binding [3] | binding [4] | binding [5] | binding [6] | binding [7] | Substance
1 | binds | binds | – | – | – | – | – | GST-Drp1 recombinant protein (from UniProt O00429 1-710)
2 | – | – | binds | binds | binds | binds | binds | Drp1 (endogenous, mouse striatal cells and mouse striatum) (from UniProt Q8K1M6 1-736) (enzyme)
